Drawing on the supplement of paper PMC6821926, “Diaminoquinazoline MMV675968 from Pathogen Box inhibits Acinetobacter baumannii growth through targeting of dihydrofolate reductase” (Scientific Reports, 2019), this text covers percent growth for 30 compounds.

Structures are written as SMILES. ± gives the uncertainty stated by the source. Some of the results follow.

The test system of assay [1] is Acinetobacter baumannii Mahidol. Description: percent growth relative to DMSO-treated control; higher = less growth inhibition. Conditions: 10 µM; 18 h.
Assay [2] concerns Acinetobacter baumannii Naval-81. Described as above. Conditions: 10 µM; 18 h.

With `O=C(Nc1nc(-c2ccccn2)cs1)c1cncn1-c1ccccc1`, the percent growth in assay [1] came to 113 ± 15%; in assay [2] it was 84.2 ± 19%.

Take `C[C@H](c1ccc2c(c1)CCCC2)N(C)c1ncc2c(N)nc(N)nc2n1`: the percent growth in assay [1] was 85.6 ± 5.5%; in assay [2], 101 ± 12%.

On to `CS(=O)(=O)c1cccc(-c2cnc3[nH]cc(-c4ccc(CCC(=O)O)cc4)c3c2)c1`, for which the results for the percent growth in assay [1] and in assay [2] were 85.9 ± 12% and 85.9 ± 4.8%, respectively.

As to `COc1ccc(Cl)cc1NC(=O)CN(C)C(=O)c1cnn(-c2ccccc2)n1`, the values for the percent growth in assay [1] and in assay [2] were 46.1 ± 43% and 104 ± 35%, respectively.

For `CCCCc1ccc(NC(=O)Nc2ccc(O[C@H]3CCCC[C@@H]3N(C)c3ccccc3)c(F)c2)cc1`, the figures for the percent growth in assay [1] and in assay [2] were 71.1 ± 38% and 89.3 ± 7%, respectively.

Take `Nc1nc2ccc(-c3cncc(Oc4ccc(F)cc4)c3)cc2[nH]1`: the percent growth is 71.8 ± 21% in assay [1] and 99 ± 4.4% in assay [2].

Turning to `CCN(CC)S(=O)(=O)c1ccc(Cl)c(C(=O)Nc2ccc3nc(C)sc3c2)c1`, the percent growth worked out at 89.7 ± 24% in assay [1] and 111 ± 58% in assay [2].

Turning to `C[C@@H]1[C@H](O)[C@@H](C)/C=C/C=C/C=C/C=C/C=C/C=C/C=C/[C@H](O[C@@H]2O[C@H](C)[C@@H](O)[C@H](N)[C@@H]2O)C[C@@H]2O[C@](O)(C[C@@H](O)C[C@@H](O)[C@H](O)CC[C@@H](O)C[C@@H](O)CC(=O)O[C@H]1C)C[C@H](O)[C@H]2C(=O)O`, the percent growth in assay [1] came out at 85.7 ± 18%; in assay [2], 56.3 ± 41%.

Regarding `CCS(=O)(=O)N(Cc1ccco1)Cc1cc2ccc(C)cc2nc1O`, the percent growth was 91.1 ± 9.2% in assay [1] and 82.6 ± 14% in assay [2].

Regarding `NCC(c1cccs1)S(=O)(=O)c1ccccc1` (stereo not given), the figures for the percent growth in assay [1] and in assay [2] were 100 ± 11% and 78.6 ± 11%, respectively.

With `O=C(NCCc1ccccc1)c1cc(-c2cccnc2)cnc1NCC1CC1`, the percent growth in assay [1] was 90.9 ± 6.2%; in assay [2], 105 ± 26%.

In the case of `O=[N+]([O-])c1cn2c(n1)OC[C@@H](OCc1ccc(OC(F)(F)F)cc1)C2`, the percent growth in assay [1] was 97.5 ± 3.5%; in assay [2], 91.3 ± 18%.

Take `COc1ccc(C2CC(c3cccs3)=NN2C(=O)c2ccco2)cc1OC` (stereo not given): the percent growth came to 98.3 ± 20% in assay [1] and 95.4 ± 24% in assay [2].

`Cn1ccnc1CNCCS(=O)(=O)c1cccc(Nc2ccc(-c3cccc(F)c3)cn2)c1`: the percent growth amounted to 68.6 ± 46% in assay [1] and 91.3 ± 13% in assay [2].

As for `CCC(Sc1nc2ccccc2o1)C(=O)Nc1nnc(C)s1` (stereo not given), the percent growth was 98.2 ± 3.7% in assay [1] and 85.8 ± 20% in assay [2].

For the compound `FC(F)(F)c1cccc(-c2nc3c(NCc4ccncc4)nccc3[nH]2)c1`, the results for the percent growth in assay [1] and in assay [2] were 92.58 ± 0.81% and 89.7 ± 4%, respectively.

Regarding `CCOC(=O)c1noc(N)c1-c1ccccc1`, the percent growth in assay [1] was 100 ± 3%; in assay [2], 87.5 ± 24%.

On to `COc1cc2ncnc(NC3CCN(Cc4ccccc4)CC3)c2cc1OC`, for which the percent growth was determined as 90.2 ± 35% in assay [1] and 87.1 ± 23% in assay [2].

`CCCc1ccc(S(=O)(=O)Nc2ccc(CN3CCN(CC4CC4)CC3)cc2)cc1`: the values for the percent growth in assay [1] and in assay [2] were 90.9 ± 5.5% and 96.6 ± 3.7%, respectively.

Take `COc1ccc(-c2onc(C(F)(F)F)c2-c2ccc(Cl)cc2)c(O)c1`: the percent growth in assay [1] was 83.7 ± 4.2%; in assay [2] it was 92.3 ± 5.9%.

As to `Nc1ncc(Br)cc1-c1nc2cc(Cl)cnc2[nH]1`, the values for the percent growth in assay [1] and in assay [2] were 101 ± 3.5% and 77.2 ± 66%, respectively.

`c1ccc2c(c1)CN(CC1CC1)CC1(CCN(Cc3c[nH]c4cnccc34)CC1)O2`: the percent growth turned out to be 99.3 ± 5.3% in assay [1] and 98.2 ± 21% in assay [2].

`FC(F)(F)c1cnc(Sc2nnc(-c3ccncc3)o2)c(Cl)c1`: the percent growth in assay [1] was 86.4 ± 3.3%; in assay [2] it was 96.8 ± 2.4%.

Consider `Cc1ccccc1CN1CCC(O)(c2ccc(Cl)c(C(F)(F)F)c2)CC1`, for which the percent growth in assay [1] turned out to be 84 ± 19%; in assay [2] it was 92.4 ± 3%.

Turning to `Cc1ccc(S(=O)(=O)N2CCN(C(=O)c3cc(-c4ccccc4)[nH]n3)CC2)cc1`, the percent growth in assay [1] was found to be 124 ± 38%; in assay [2], 81.8 ± 24%.

`COc1ccc(Nc2ccccc2NC(=O)c2ccc(O)nc2)cc1`: the values for the percent growth in assay [1] and in assay [2] were 101 ± 13% and 87.4 ± 18%, respectively.

Take `CC(Oc1ccccc1)C(=O)Nc1nc(-c2ccccn2)cs1` (stereo not given): the percent growth in assay [1] turned out to be 92.7 ± 10%; in assay [2], 105 ± 16%.

Turning to `CC(C)(C)c1ccc(N[C@@H]2CCCC[C@H]2NC(=O)c2ccco2)cc1`, the percent growth in assay [1] is 89.3 ± 8.8%; in assay [2] it was 81.5 ± 13%.

Turning to `CC(Oc1cccc(Cl)c1)C(=O)Nc1ccc2oc(-c3ccncc3)nc2c1` (stereo not given), the percent growth in assay [1] amounted to 106 ± 11%; in assay [2], 91 ± 17%.

Turning to `CCc1ccc(S(=O)(=O)Nc2cc(CN3CCN(CCC(C)C)CC3)ccc2C)cc1`, the percent growth in assay [1] was found to be 94.2 ± 8%; in assay [2], 94.6 ± 1.4%.
